Measured values from PubChem BioAssay AID1296 (Columbia University Molecular Screening Center, 2008).
Among all 130,000 compounds or so, about 1,000 (0.77%) were called active. Inconclusive results, whose numbers are uncertain, are shown with a selection of clear calls.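 Rule for the calls: active = activation at 2 µM above a set limit, confirmed on inspection of the cell images; inconclusive = above the set limit but not confirmed on image inspection; inactive = the rest.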

Assay: activators of insulin promoter-driven GFP, primary screen, imaging, TRM-6 cells, eGFP reporter, cell count (AID 1296);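 note: share of cells whose green reporter signal exceeds an intensity cutoff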
Settings: at 2 µM, stronger effect = higher value, plate-scaled: unstimulated 0, stimulated control 100
Summary of the method: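 System – human fetal islet-derived TRM-6 cells with tamoxifen-inducible insulin promoter–eGFP reporter · Amount – 1,000 cells per well · Schedule – overnight tamoxifen, then two-day compound incubation at 37 °C · Detection – high-content imaging of fixed cells with Hoechst nuclear stain · Read-out – percent cells above green-intensity threshold, converted to percent activation versus plate controls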

SMILES | activation
C=CCc1c(C)nc(N)[nH]c1=O | inconclusive: 406%
CCC(CC)C(=O)N=C1SC2CS(=O)(=O)CC2N1CCc1ccc(OC)cc1 (stereo not drawn) | inactive: 0%
CC(=O)NCc1cc(-c2ccc(Cl)cc2)no1 | inconclusive: 337% [cytotoxic]
CS(=O)(=O)N(CC(=O)NCc1ccco1)Cc1ccc(Cl)cc1 | inconclusive: 406%
CCCN1C(=O)c2ccc(C(=O)Nc3nccs3)cc2C1=O | active: 475%
Cn1c(C(=O)OC(C(=O)NCc2ccco2)c2ccncc2)cc2sccc21 (stereo not drawn) | active: 633%
Cc1ccc(C(=O)N2CCN(C(=O)c3ccc(C)c(C)c3)C(C)C2)cc1C (stereo not drawn) | inconclusive: 400%
CCOC(=O)c1c(NC(=O)CSc2nnc(CNc3ccc(Cl)cc3)o2)sc(C)c1C | inconclusive: 454%
N#CCC(=O)N/N=C/c1ccc(OS(=O)(=O)c2ccccc2)cc1 | inconclusive: 153%
C/C(CC(=O)NCCCN1CCOCC1)=N\NC(=O)COc1ccc(Cl)cc1 | inactive: -4.17%
COc1ccc(S(=O)(=O)Nc2cccc(Cl)c2)cc1OC | inconclusive: 154%
COc1cc2c(cc1NC(=O)CCCN1C(=O)CCC1=O)oc1ccccc12 | active: 506%
CCOP(=O)(c1ccccc1)C(O)c1ccccc1 (stereo not drawn) | inactive: -3.33%
Cc1cc(NC(=O)CCCC(=O)Nc2ccc(F)cc2)no1 | inconclusive: 75.3%
O=C(c1ccccc1Oc1ccccc1)N1CCN(c2ccccc2F)CC1 | inconclusive: 520%
CC(=O)NC1(c2nnnn2CCOC(=O)Nc2ccc(Cl)cc2)CCCCC1 | inactive: 110%
CCN1CCN(c2nc(Nc3cccc(C)c3)nc(N)c2[N+](=O)[O-])CC1 | inactive: 7.69%
COC1=C(N)C(=O)c2nc(-c3nc(C(=O)O)c(C)c(-c4ccc(OC)c(OC)c4O)c3N)ccc2C1=O | inconclusive: 376% [cytotoxic]
CC(O)CN(Cc1cccc(Cl)c1)CC(C)O (stereo not drawn) | inactive: -7.69%
O=C(CCCN1C(=O)c2ccccc2C1=O)Nc1nnc(C2CC2)s1 | inactive: -8.33%
O=c1c2ccccc2nc2n1C(CSCc1ccc(Cl)cc1Cl)CS2 (stereo not drawn) | inactive: 0%
N=c1oc2c3c4c(cc2cc1C(=O)Nc1ccccc1)CCCN4CCC3 | active: 900%
Cc1cccc(C)c1OCCCCn1cnc2ccccc2c1=O | inconclusive: 140%
S=C(NCCc1ccccc1)NCc1cccs1 | inactive: -8.11%

SMILES | activation
Cc1cc(N)nc2nc(C(F)(F)F)nn12 | active: 800%
Cc1noc(C)c1COc1cccc(C(=O)OCC(=O)N2CC(=O)Nc3ccccc32)c1 | inconclusive: 209% [cytotoxic]
COc1ccc(C)c(Cn2c(-c3nonc3N)nc3ccccc32)c1 | inconclusive: 740%
CCn1c(=O)c2cc(S(=O)(=O)NCCOc3ccccc3)ccc2n(CC)c1=O | inconclusive: 77.4%
CCNc1ccc(S(=O)(=O)N(C)C)cc1[N+](=O)[O-] | inconclusive: 457%
CCN(CC)S(=O)(=O)c1cccc(C(=O)N2CC(O)CC2C(=O)O)c1 (stereo not drawn) | active: 443%
O=C(CSCc1ccc(Cl)cc1)Nc1ccc2c(c1)OCO2 | inconclusive: 538%
COc1ccccc1N1CCN(C(CNS(=O)(=O)c2ccc(C)cc2)c2cccnc2)CC1 (stereo not drawn) | active: 75.7%
Cc1ccc(C)n1-c1ccc(-c2nnc3n2CCCCC3)s1 | inconclusive: 120%
O=C(CN(CC(=O)N1CCOCC1)S(=O)(=O)c1ccc(Br)s1)N1CCOCC1 | inconclusive: 431%
O=c1[nH]c(N2CCc3ccccc32)nc2c1CCCC2 | inconclusive: 473%
COc1cc(C)nc(NS(=O)(=O)c2ccc(C)cc2)n1 | inactive: 2.7%
Cc1ccc(C)n1CCN1CCN(CC(=O)Nc2ccc(S(N)(=O)=O)cc2)CC1 | inconclusive: 158% [cytotoxic]
O=C(Nc1cccn(Cc2c(Cl)cccc2Cl)c1=O)c1ccc(Cl)cc1Cl | inconclusive: 257%
O=C(Nc1cccc(C(F)(F)F)c1)c1ccccc1NC(=O)C1CCCCC1 | inactive: -3.7%
O=C(CCCCC(=O)NCc1cccs1)NCc1cccs1 | inconclusive: 35%
Cc1cc(C)n(-c2ccc(Cl)c(C(=O)Nc3ccc(-c4nnc5n4CCCCC5)cc3)n2)n1 | inactive: 8.7%
O=C(Nc1c(C(=O)NCc2ccco2)cnn1-c1ccccc1)c1cccc(F)c1 | active: 287%
O=C(CCl)N(Cc1ccccc1)c1ccccc1 | inconclusive: 525% [cytotoxic]
Cc1cc(N2C(=O)C3C4C=CC(C4)C3C2=O)no1 (stereo not drawn) | inconclusive: 93.9%
CC(=O)NC(CCS(C)(=O)=O)C(=O)Nc1cccc(C(C)=O)c1 (stereo not drawn) | inconclusive: 436%
Cc1cc(C)cc(NC(=O)CSc2nc3c(oc4ccccc43)c(=O)n2-c2ccccc2)c1 | inactive: 0%
Nc1ccc2c3c(cccc13)CC2 | active: 377%
O=C(CN1CCCCCC1)N/N=C/c1cccc(Cl)c1Cl | inconclusive: 208%

SMILES | activation
Cc1nn(-c2ccccc2)c(Cl)c1C(=O)NCCCCNC(=O)c1c(C)nn(-c2ccccc2)c1Cl | inconclusive: 493%
CCCc1cc(=O)oc2cc(Oc3ncccn3)ccc12 | active: 154%
CCC(C)c1ccccc1OCCn1ccnc1 (stereo not drawn) | inactive: -3.85%
CCCn1c(SCC(=O)c2ccc(OC)c(OC)c2)nc2c1c(=O)n(C)c(=O)n2C | inactive: -92.9%
O=C(Cc1c[nH]c2ccccc12)NCc1ccc(Cl)cc1Cl | inactive: 0%
NC1C2CN(c3nc4c(cc3F)c(=O)c(C(=O)O)cn4-c3ccc(F)cc3F)CC12 (stereo not drawn) | inconclusive: 130%
COc1ccc(NC2=CC(=O)N(C)C2=O)cc1 | inactive: 0%
Cc1ccc(C)c(OCCCCCn2ccnc2)c1 | inconclusive: 182%
Cc1ccc(NC(=O)/C=C/c2ccc([N+](=O)[O-])s2)cc1 | active: 270%
Cc1ccc2[nH]c(=O)c(N3CCOCC3)c(-c3ccccc3)c2c1 | inconclusive: 610%
COC(=O)c1ccc(-c2ccc(/C=N/NC(=O)CC3(C)OCCCO3)o2)cc1 | inactive: 8.33%
Cc1ccc2c(c1)c(C)c(C)n2CC(O)CN1CCOCC1 (stereo not drawn) | active: 533%
CC(C)C[C@H](NC(=O)OC(C)(C)C)C(=O)N1CCC(C(=O)N[C@@H](Cc2ccccc2)C(=O)O)CC1 | inactive: -40%
COC(=O)C1=C(CSCc2ccccc2)NC(=O)NC1c1cc(C)ccc1C (stereo not drawn) | inconclusive: 75%
CC1(C)CC(=O)C/C(=N\NC(=O)C2CC2c2ccccc2)C1 (stereo not drawn) | inactive: -5.56%
COc1ccc2c(c1)C(C)=CC(C)(C)N2S(=O)(=O)c1ccc(C)cc1 | inconclusive: 200%
O=C(NCc1ccccn1)c1cc(-n2cnnc2)ccc1Cl | inconclusive: 477%
Cc1ccc(SC(C)C(=O)Nc2ccccc2C(=O)N2CCOCC2)cc1 (stereo not drawn) | active: 82.9%
CN(C)CCCN1c2ccccc2Sc2ccc(Cl)cc21 | inconclusive: 77.1%
CCc1ccc(-c2nn(Cc3ccccc3)cc2/C=C/C(=O)O)cc1 | inconclusive: 508%
CC1CC(C)CN(S(=O)(=O)c2ccc(C(=O)N(c3ccccn3)C3CCCCC3)cc2)C1 (stereo not drawn) | inactive: 9.09%
Cc1ccc(-c2csc3ncn(CC(=O)N4CCOCC4)c(=O)c23)cc1 | inconclusive: 257%
COc1ccc2c(Cl)c(C(=O)NCCCn3ccnc3)sc2c1 | inconclusive: 485%
CCCCOC(=O)c1ccc(NC(=S)NC(=O)c2c(Br)c(C)nn2C)cc1 | inactive: 9.38%

Exported in markdown: entries from further up.

| SMILES | activation |
| --- | --- |
| O=C(CCl)N(Cc1ccccc1)c1ccccc1 | inconclusive: 525% [cytotoxic] |
| Cc1cc(N2C(=O)C3C4C=CC(C4)C3C2=O)no1 (stereo not drawn) | inconclusive: 93.9% |
| CC(=O)NC(CCS(C)(=O)=O)C(=O)Nc1cccc(C(C)=O)c1 (stereo not drawn) | inconclusive: 436% |
| Cc1cc(C)cc(NC(=O)CSc2nc3c(oc4ccccc43)c(=O)n2-c2ccccc2)c1 | inactive: 0% |
| Nc1ccc2c3c(cccc13)CC2 | active: 377% |
| O=C(CN1CCCCCC1)N/N=C/c1cccc(Cl)c1Cl | inconclusive: 208% |
| Cc1nn(-c2ccccc2)c(Cl)c1C(=O)NCCCCNC(=O)c1c(C)nn(-c2ccccc2)c1Cl | inconclusive: 493% |
| CCCc1cc(=O)oc2cc(Oc3ncccn3)ccc12 | active: 154% |
| CCC(C)c1ccccc1OCCn1ccnc1 (stereo not drawn) | inactive: -3.85% |
| CCCn1c(SCC(=O)c2ccc(OC)c(OC)c2)nc2c1c(=O)n(C)c(=O)n2C | inactive: -92.9% |
| O=C(Cc1c[nH]c2ccccc12)NCc1ccc(Cl)cc1Cl | inactive: 0% |
| COc1ccc(NC2=CC(=O)N(C)C2=O)cc1 | inactive: 0% |
| Cc1ccc(C)c(OCCCCCn2ccnc2)c1 | inconclusive: 182% |
| Cc1ccc(NC(=O)/C=C/c2ccc([N+](=O)[O-])s2)cc1 | active: 270% |
| Cc1ccc2[nH]c(=O)c(N3CCOCC3)c(-c3ccccc3)c2c1 | inconclusive: 610% |
| COC(=O)c1ccc(-c2ccc(/C=N/NC(=O)CC3(C)OCCCO3)o2)cc1 | inactive: 8.33% |
| Cc1ccc2c(c1)c(C)c(C)n2CC(O)CN1CCOCC1 (stereo not drawn) | active: 533% |
| CC(C)C[C@H](NC(=O)OC(C)(C)C)C(=O)N1CCC(C(=O)N[C@@H](Cc2ccccc2)C(=O)O)CC1 | inactive: -40% |
| COC(=O)C1=C(CSCc2ccccc2)NC(=O)NC1c1cc(C)ccc1C (stereo not drawn) | inconclusive: 75% |
| COc1ccc2c(c1)C(C)=CC(C)(C)N2S(=O)(=O)c1ccc(C)cc1 | inconclusive: 200% |
| O=C(NCc1ccccn1)c1cc(-n2cnnc2)ccc1Cl | inconclusive: 477% |
| Cc1ccc(SC(C)C(=O)Nc2ccccc2C(=O)N2CCOCC2)cc1 (stereo not drawn) | active: 82.9% |
| CN(C)CCCN1c2ccccc2Sc2ccc(Cl)cc21 | inconclusive: 77.1% |
| CCc1ccc(-c2nn(Cc3ccccc3)cc2/C=C/C(=O)O)cc1 | inconclusive: 508% |
| CC1CC(C)CN(S(=O)(=O)c2ccc(C(=O)N(c3ccccn3)C3CCCCC3)cc2)C1 (stereo not drawn) | inactive: 9.09% |
| COc1ccc2c(Cl)c(C(=O)NCCCn3ccnc3)sc2c1 | inconclusive: 485% |
| CCCCOC(=O)c1ccc(NC(=S)NC(=O)c2c(Br)c(C)nn2C)cc1 | inactive: 9.38% |

(continued)

SMILES | activation
C/C(=N/N=C1/NC(=O)CC(C(=O)Nc2ccccc2)S1)c1cccs1 (stereo not drawn) | inactive: 3.45%
Cc1ccc(C(=O)NC(=S)NCC2CCCO2)cc1Br (stereo not drawn) | inactive: 0%
CCN1/C(=C/C=C/C=C/c2sc3ccccc3[n+]2CC)Sc2ccccc21 | active: 354%
O=C(O)CN=C1NC2(CCCCC2)Cc2ccccc21 | inconclusive: 469%
Cc1ccc2cc(CN(CCCN3CCOCC3)C(c3nnnn3Cc3ccco3)C(C)C)c(=O)[nH]c2c1C (stereo not drawn) | inconclusive: 500%
O=C(Cc1c(F)cccc1Cl)N1CCCC1 | active: 557%
O=Cc1sc(Nc2ccccc2)nc1Cl | inconclusive: 246%
COC(=O)c1cn(NC(=O)c2cccc(F)c2)c(=O)c2ccccc12 | inactive: -6.45%
Clc1ccc(/C=N/c2c(-c3ccc(Cl)cc3)nc3n2CCS3)cc1 | inactive: 6.98%
CCOc1ccccc1CN1CCN(Cc2nc3c(s2)CCCC3)CC1CCO (stereo not drawn) | inactive: 6.67%
Cc1ccc(-c2nc(NC(=O)c3nn(C)cc3[N+](=O)[O-])sc2C)cc1 | inconclusive: 196% [cytotoxic]
FC(F)(F)c1cccc(-c2nnc(-c3ccccc3)c(N3CCOCC3)n2)c1 | active: 233%
CCOC(=O)COc1ccc2c3c(c(=O)oc2c1C)CCC3 | active: 519%
C/C=C/C=N/Nc1nc(C)cc(=O)[nH]1 | inactive: 5.56%
O=C(CSc1ccc(-c2ccccc2)nn1)NCc1ccco1 | active: 444%
O=C(CSc1nnc(-c2ccco2)n1Cc1ccccc1)OC1CCCCC1 | inactive: 8.33%
CCOC(=O)c1nn(-c2ccc(C)cc2)c(C)c1C(C)=O | inactive: -73.3%
COc1ccccc1C(=O)N1CCN(c2cccc(Cl)c2)CC1 | inconclusive: 150% [cytotoxic]
COc1ccc(CNC(=O)CN2C(=O)NC3(CCCCCC3)C2=O)cc1OC | active: 244%
CCC(=O)c1ccc(OCC(=O)NCC2(N3CCCCC3)CCCCC2)cc1 | inactive: 7.14%
CCOC(=O)/C=c1\s/c(=C\c2ccc3cc(OC)ccc3c2)c(=O)n1CC(=O)NCc1ccc2c(c1)OCO2 | active: 335%
